According to publication PMC10333072:
These are yes or no findings as the source states them, for the method shown. Binding seen in cells or lysates may run through a third protein. Some binding calls cover weakened binding; strength is not graded here.

By UniProt entry, the sequences of proteins in these tests, tags left out. Residues count along the entry.
UniProt Q80U78: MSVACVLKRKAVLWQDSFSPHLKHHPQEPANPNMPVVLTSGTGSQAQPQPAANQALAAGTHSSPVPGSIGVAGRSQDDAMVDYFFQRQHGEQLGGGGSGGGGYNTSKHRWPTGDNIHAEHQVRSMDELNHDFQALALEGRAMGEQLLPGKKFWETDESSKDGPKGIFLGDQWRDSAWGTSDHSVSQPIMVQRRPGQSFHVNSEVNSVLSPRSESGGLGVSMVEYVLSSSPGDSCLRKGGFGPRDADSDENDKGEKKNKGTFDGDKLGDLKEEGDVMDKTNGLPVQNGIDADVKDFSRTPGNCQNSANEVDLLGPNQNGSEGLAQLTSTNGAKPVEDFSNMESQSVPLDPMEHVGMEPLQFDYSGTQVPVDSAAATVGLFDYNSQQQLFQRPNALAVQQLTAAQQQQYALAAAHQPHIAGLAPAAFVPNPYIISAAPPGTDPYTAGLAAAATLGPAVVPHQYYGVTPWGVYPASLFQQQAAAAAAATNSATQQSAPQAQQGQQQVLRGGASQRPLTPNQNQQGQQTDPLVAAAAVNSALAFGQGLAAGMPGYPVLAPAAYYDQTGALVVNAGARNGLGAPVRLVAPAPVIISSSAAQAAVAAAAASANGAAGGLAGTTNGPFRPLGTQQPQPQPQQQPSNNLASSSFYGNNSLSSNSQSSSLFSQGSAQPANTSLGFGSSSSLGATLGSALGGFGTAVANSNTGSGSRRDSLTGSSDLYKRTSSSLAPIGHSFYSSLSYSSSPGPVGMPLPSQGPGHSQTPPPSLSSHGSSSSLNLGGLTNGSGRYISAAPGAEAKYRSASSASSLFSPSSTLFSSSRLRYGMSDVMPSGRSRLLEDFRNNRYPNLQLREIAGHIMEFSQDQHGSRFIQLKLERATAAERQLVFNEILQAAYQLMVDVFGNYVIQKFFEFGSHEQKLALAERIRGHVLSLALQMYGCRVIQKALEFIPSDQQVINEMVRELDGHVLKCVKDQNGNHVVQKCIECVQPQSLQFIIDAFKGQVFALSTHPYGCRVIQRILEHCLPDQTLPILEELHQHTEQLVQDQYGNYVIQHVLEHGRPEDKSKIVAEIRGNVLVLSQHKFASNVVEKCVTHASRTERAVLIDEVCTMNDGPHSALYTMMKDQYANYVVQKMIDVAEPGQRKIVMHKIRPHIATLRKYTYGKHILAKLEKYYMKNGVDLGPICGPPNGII
UniProt P51865, residues 18-134: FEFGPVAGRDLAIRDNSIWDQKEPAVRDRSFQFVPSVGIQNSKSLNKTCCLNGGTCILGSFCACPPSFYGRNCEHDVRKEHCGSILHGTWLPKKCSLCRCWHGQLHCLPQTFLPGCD

Legend:
[1] = biological target: PUM1 (mouse (endogenous in RAW264.7)) (UniProt Q80U78); assay: co-IP; RAW264.7 cells; precipitation of PUM1, blot for Cripto-1; conditions not given
GST-Cripto-1 = GST-Cripto-1 (UniProt P51865); assay: pull-down; GST-CR-1 as bait, His-PUM1 detected by blot; conditions not given

Substance | binding [1] | binding (GST-Cripto-1)
Cripto-1 (from UniProt P51865 18-134) | binds | 
His-PUM1 (from UniProt Q80U78 1-1189) |  | binds
